Assay results taken from patent US20090202980A1.
These are yes or no findings as the source states them, for the method shown. For part of these data: Binding seen in cells or lysates may run through a third protein. Some binding calls cover weakened binding; strength is not graded here.

Amino acid sequences for entries named in this document (tags omitted). A change or cut given only in a name is not applied to a line headed by its entry. Chains listed by the source or under a name are the forms on record and can include a tag or linker. Residues count along the entry.
UniProt P02751: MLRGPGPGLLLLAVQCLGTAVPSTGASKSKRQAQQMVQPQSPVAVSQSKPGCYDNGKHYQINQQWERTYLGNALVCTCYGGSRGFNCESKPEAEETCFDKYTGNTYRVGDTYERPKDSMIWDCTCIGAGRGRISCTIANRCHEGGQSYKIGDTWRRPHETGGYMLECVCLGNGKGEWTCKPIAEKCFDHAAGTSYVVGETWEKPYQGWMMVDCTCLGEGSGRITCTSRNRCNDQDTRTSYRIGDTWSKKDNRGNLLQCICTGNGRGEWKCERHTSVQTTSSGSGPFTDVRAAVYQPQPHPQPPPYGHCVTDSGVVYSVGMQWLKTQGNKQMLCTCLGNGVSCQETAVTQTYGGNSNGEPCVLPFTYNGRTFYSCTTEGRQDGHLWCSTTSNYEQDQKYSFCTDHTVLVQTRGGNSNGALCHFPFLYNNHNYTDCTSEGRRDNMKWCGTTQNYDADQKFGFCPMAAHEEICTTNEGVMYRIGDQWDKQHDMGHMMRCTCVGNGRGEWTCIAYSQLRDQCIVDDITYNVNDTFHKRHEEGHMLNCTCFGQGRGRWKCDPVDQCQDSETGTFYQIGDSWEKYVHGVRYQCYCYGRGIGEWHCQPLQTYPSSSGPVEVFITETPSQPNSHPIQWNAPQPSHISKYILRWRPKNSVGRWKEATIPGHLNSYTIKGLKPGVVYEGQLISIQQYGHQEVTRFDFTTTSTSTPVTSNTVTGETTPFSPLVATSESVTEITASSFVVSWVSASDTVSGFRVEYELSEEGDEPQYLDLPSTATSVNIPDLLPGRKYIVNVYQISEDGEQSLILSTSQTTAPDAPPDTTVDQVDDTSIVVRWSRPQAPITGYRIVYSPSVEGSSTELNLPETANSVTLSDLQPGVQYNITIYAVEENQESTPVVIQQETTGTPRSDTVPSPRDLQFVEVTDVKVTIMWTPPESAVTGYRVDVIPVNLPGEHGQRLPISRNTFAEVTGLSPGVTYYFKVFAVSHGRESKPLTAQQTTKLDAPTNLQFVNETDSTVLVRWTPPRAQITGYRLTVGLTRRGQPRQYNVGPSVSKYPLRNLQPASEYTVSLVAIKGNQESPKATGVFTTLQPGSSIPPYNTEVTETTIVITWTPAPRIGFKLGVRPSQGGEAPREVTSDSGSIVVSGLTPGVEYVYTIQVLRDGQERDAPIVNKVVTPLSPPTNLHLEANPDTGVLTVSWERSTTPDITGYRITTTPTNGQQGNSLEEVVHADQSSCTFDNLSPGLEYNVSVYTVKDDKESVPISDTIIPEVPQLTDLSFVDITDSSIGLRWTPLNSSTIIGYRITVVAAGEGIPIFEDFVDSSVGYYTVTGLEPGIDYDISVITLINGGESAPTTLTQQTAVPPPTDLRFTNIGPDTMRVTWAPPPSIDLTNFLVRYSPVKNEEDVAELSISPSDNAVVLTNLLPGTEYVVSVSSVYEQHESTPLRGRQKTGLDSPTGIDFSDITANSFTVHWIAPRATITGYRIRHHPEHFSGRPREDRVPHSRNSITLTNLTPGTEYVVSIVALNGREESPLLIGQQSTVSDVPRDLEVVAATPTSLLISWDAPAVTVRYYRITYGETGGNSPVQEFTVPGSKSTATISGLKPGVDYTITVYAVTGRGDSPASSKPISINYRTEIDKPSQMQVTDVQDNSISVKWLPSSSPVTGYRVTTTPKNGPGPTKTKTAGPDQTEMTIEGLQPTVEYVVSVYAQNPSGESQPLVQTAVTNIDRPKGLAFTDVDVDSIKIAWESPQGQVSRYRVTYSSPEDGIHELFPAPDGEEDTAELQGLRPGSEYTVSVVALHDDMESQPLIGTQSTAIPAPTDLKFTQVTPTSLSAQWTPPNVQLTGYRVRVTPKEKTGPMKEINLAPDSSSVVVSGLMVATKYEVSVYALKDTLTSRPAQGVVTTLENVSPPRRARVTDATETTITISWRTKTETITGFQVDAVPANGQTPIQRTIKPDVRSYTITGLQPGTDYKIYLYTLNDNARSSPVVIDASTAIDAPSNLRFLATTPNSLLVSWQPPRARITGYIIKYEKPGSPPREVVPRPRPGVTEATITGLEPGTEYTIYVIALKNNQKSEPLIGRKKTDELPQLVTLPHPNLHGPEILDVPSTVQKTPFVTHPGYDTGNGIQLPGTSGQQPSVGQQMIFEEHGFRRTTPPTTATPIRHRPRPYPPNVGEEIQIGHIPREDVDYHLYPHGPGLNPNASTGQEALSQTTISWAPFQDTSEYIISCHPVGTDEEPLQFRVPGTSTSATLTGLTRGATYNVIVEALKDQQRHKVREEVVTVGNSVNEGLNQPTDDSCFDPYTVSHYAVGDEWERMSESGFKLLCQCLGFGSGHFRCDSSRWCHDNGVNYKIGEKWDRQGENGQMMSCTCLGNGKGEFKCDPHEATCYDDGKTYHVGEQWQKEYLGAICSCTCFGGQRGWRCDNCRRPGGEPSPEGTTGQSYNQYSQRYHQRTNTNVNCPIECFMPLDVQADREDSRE
Fn F4-5-GST (finger domains 4-5 of human fibronectin with C-terminal GST tag) (P02751, form named): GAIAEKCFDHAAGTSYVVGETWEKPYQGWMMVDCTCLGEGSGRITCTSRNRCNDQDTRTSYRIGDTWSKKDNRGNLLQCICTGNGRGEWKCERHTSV
UniProt Q04756: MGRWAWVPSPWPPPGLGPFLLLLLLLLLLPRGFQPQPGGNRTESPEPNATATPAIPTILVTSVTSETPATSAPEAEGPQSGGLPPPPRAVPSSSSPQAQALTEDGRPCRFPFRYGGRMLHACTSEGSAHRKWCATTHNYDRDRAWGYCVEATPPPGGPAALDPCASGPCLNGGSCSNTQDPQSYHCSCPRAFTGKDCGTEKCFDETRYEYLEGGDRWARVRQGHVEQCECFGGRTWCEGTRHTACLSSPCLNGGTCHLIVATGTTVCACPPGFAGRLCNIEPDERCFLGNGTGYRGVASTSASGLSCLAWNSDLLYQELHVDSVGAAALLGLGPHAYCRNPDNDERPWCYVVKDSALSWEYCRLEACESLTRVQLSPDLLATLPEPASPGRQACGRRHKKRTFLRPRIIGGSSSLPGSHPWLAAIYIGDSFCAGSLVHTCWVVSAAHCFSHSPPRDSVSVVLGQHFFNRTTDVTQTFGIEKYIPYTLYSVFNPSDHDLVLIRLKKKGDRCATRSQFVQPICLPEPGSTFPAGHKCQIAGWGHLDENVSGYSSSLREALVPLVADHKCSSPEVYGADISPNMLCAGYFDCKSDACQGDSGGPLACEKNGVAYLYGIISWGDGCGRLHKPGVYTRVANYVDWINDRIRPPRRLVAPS
UniProt P00748, residues 20-615: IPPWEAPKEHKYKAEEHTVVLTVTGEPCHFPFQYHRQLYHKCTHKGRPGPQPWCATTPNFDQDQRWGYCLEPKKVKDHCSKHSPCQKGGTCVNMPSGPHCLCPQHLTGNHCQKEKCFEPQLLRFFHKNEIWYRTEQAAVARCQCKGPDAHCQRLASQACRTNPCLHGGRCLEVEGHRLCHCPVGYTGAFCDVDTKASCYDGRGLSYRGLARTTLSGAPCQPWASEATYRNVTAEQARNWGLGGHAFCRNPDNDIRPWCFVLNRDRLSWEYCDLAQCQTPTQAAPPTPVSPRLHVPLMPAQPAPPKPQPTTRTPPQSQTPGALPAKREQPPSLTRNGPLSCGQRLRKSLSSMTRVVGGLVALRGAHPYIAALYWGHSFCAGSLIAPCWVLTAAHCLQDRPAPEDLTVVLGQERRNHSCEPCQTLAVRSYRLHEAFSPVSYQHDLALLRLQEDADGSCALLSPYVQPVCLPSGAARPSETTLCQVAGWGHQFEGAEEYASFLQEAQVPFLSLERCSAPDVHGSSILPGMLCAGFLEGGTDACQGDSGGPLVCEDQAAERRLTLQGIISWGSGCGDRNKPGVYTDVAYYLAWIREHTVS
UniProt P00750: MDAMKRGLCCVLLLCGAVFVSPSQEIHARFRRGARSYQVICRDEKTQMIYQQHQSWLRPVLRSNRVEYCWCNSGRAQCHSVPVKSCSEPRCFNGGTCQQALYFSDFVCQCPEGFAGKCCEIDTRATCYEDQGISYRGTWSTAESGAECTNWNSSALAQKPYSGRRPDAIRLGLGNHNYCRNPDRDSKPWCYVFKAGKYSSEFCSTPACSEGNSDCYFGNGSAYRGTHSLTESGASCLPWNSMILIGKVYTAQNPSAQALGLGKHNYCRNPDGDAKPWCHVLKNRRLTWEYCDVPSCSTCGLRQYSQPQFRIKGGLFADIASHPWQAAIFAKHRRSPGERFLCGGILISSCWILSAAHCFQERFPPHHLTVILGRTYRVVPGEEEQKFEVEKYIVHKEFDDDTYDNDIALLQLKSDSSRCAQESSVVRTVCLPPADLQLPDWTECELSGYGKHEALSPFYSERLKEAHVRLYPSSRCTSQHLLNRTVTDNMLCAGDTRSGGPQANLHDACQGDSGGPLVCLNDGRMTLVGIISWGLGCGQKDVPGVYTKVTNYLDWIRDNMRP

Columns and labels:
[1] = biological target: T1, fibrin peptide 85 (FP13), human fibrin α-chain fragment α148-160 (human); experiment: ELISA, immobilized peptide
T1 sequence (peptide): KRLEVDIDIKIRS

[2] = biological target: human islet amyloid polypeptide, full length (fl-hIAPP) (human); experiment: pull-down with IAPP fibrils, Western blot
[3] = biological target: human amyloid-β peptide Aβ(1-40) (human); experiment: pull-down with Aβ fibrils, Western blot
[4] = biological target: human islet amyloid polypeptide, full length (fl-hIAPP) (human); experiment: ELISA, immobilized peptide
[5] = biological target: human amyloid-β peptide Aβ(1-40) (human); experiment: ELISA, immobilized peptide
[6] = biological target: T2, amyloid fragment of transthyretin (TTR11); experiment: ELISA, immobilized peptide
T2 sequence (peptide): YTIAALLSPYS

[7] = biological target: T1, fibrin peptide 85 (FP13), human fibrin α-chain fragment α148-160 (human); experiment: ELISA, immobilized peptide, 10 mM εACA

Row | Substance | binding [1] | binding [2] | other results
1 | Fn F4-GST (fourth finger domain of human fibronectin with C-terminal GST tag) (from UniProt P02751 182-228) | – | binds | –
2 | HGFa-F-GST (finger domain of human hepatocyte growth factor activator with C-terminal GST tag) (from UniProt Q04756 200-240; P08515 1-218) | – | binds | binding [3]: binds
3 | fibronectin (full-length, purified) (from UniProt P02751 32-2477) | binds | – | binding [4]: binds; binding [5]: binds; binding [6]: binds
4 | human factor XII (Hageman factor) (from UniProt P00748 20-615) (enzyme) | binds | – | –
5 | recombinant tissue-type plasminogen activator (tPA) (from UniProt P00750 36-562) (enzyme) | – | – | binding [7]: binds

Second part, led by results:

Row | binding [1] | binding [2] | Substance | other results
6 | binds | – | Fn F4-5-GST (finger domains 4-5 of human fibronectin with C-terminal GST tag) (from UniProt P02751 182-276) | –
7 | – | binds | tPA-F-EGF-K1-GST (finger, EGF and kringle 1 domains of human tPA with C-terminal GST tag) (from UniProt P00750 36-210) | binding [3]: binds
